{"source": "PubChem BioAssay AID1159584 – Peter MacCallum Cancer Centre – 2016", "purpose": "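Genes whose loss is lethal only together with E-cadherin loss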 (primary screen)", "cell system": "human MCF10A breast epithelial cells, parental and CDH1-null", "knock-down reagent": "siRNA against human genes", "measured": "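Cell viability by CellTiter-Glo ATP luminescence, each line scaled to the mean of mock wells across plates, then CDH1-null over parental ratio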", "reading the numbers": "CDH1-null / parental viability ratio: higher = CDH1-null cells survive relatively better than parental", "note": "Here is one part, drawn at random, of about 18,000 reagents tested. Not all columns of the deposit are shown. Not given: the amount of reagent, the time to read-out."}
The first 2 records, ahead of the listing:
{"Gene": "TUBB4A (tubulin beta 4A class IVa)", "CDH1-null / parental viability ratio": 0.79}
{"Gene": "SH3GLB2 (SH3 domain containing GRB2 like, endophilin B2)", "CDH1-null / parental viability ratio": 0.89}

The list itself, from the start:
{"Gene": "TUBB4A (tubulin beta 4A class IVa)", "CDH1-null / parental viability ratio": 0.79}
{"Gene": "SH3GLB2 (SH3 domain containing GRB2 like, endophilin B2)", "CDH1-null / parental viability ratio": 0.89}
{"Gene": "FMO5 (flavin containing dimethylaniline monoxygenase 5)", "CDH1-null / parental viability ratio": 0.96}
{"Gene": "KRTAP19-7 (keratin associated protein 19-7)", "CDH1-null / parental viability ratio": 0.96}
{"Gene": "TSPAN11 (tetraspanin 11)", "CDH1-null / parental viability ratio": 1.2}
{"Gene": "C16orf86 (chromosome 16 open reading frame 86)", "CDH1-null / parental viability ratio": 1.2}
{"Gene": "PPP6R1 (protein phosphatase 6 regulatory subunit 1)", "CDH1-null / parental viability ratio": 0.93}
{"Gene": "FEN1 (flap structure-specific endonuclease 1)", "CDH1-null / parental viability ratio": 0.95}
{"Gene": "BACH2 (BACH transcriptional regulator 2)", "CDH1-null / parental viability ratio": 0.95}
{"Gene": "IL36A (interleukin 36 alpha)", "CDH1-null / parental viability ratio": 0.87}
{"Gene": "XPOT (exportin for tRNA)", "CDH1-null / parental viability ratio": 1.18}
{"Gene": "SLC43A1", "CDH1-null / parental viability ratio": 1.19}
{"Gene": "ATAD3B (ATPase family AAA domain containing 3B)", "CDH1-null / parental viability ratio": 1.06}
{"Gene": "FRMD4A (FERM domain containing 4A)", "CDH1-null / parental viability ratio": 1.05}
{"Gene": "IFT56 (intraflagellar transport 56)", "CDH1-null / parental viability ratio": 0.88}
{"Gene": "BCO2 (beta-carotene oxygenase 2)", "CDH1-null / parental viability ratio": 0.85}
{"Gene": "ARL2BP (ARF like GTPase 2 binding protein)", "CDH1-null / parental viability ratio": 1.23}
{"Gene": "NHS (NHS actin remodeling regulator)", "CDH1-null / parental viability ratio": 1.25}
{"Gene": "NRGN (neurogranin)", "CDH1-null / parental viability ratio": 0.79}
{"Gene": "RHPN1 (rhophilin Rho GTPase binding protein 1)", "CDH1-null / parental viability ratio": 0.92}
{"Gene": "ACP2 (acid phosphatase 2, lysosomal)", "CDH1-null / parental viability ratio": 1.37}
{"Gene": "ADIG (adipogenin)", "CDH1-null / parental viability ratio": 0.89}
{"Gene": "IL2 (interleukin 2)", "CDH1-null / parental viability ratio": 1.22}
{"Gene": "C11orf65 (chromosome 11 open reading frame 65)", "CDH1-null / parental viability ratio": 0.88}
